For 1 compound, Ki results are on record in patent publication US11773096B2, “Small-molecule PI5P4K alpha/beta inhibitors and methods of treatment using same” (YALE UNIVERSITY, priority 2018, dated 2023).

The chains behind the UniProt entries cited, without tags or fusion partners.
UniProt P48426, whole entry: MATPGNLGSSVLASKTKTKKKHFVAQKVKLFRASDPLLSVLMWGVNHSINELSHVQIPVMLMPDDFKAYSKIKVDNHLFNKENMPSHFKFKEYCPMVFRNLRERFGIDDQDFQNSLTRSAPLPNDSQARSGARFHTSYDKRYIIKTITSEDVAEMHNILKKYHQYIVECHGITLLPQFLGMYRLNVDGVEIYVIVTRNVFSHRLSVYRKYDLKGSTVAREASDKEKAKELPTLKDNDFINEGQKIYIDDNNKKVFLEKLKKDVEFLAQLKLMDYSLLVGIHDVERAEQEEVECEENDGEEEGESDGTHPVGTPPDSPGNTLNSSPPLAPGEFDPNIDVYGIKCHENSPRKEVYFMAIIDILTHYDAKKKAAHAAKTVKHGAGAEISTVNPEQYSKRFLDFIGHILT
UniProt P78356, whole entry: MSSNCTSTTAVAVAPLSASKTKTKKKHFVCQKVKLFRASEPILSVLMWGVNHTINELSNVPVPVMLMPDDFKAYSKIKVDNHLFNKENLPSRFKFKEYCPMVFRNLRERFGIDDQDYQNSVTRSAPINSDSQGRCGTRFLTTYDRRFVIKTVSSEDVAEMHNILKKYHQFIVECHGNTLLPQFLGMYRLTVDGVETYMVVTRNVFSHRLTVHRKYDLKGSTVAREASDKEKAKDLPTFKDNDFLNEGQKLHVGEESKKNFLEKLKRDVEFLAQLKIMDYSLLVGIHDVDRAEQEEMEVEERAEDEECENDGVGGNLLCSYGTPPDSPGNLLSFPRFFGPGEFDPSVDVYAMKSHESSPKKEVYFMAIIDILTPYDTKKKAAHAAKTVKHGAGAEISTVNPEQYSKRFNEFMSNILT

pKi: −log10 of the molar value. The structures given here were assigned with low confidence; some may be wrong.

Assay [1] concerns the target PI5P4Kα (Homo sapiens, UniProt P48426). Description: PI5P4Kα kinase assay, 32P-labelled PI(4,5)P2 product resolved by TLC. The following applies: read-out: Ki(PI5P4Kα).
In assay [2] the target is PI5P4Kβ (Homo sapiens, UniProt P78356). Description: PI5P4Kβ kinase assay, 32P-labelled PI(4,5)P2 product resolved by TLC. The following applies: read-out: Ki(PI5P4Kβ).

The pKi is the Ki on a negative log10 scale, so that one unit is a factor of ten. On to `CN1C(=O)[C@@H](CN2CCCC2)N(C2CCCC2)c2nc(Nc3cc(Cl)c(O)c(Cl)c3)ncc21`, for which the negative-log Ki (pKi) in assay [1] is 6.49 to 6.80; in assay [2], 6.00 to 6.30.
